Here are results for four substances from paper PMC9592618.

By UniProt entry, the sequences of proteins in these tests, tags left out.
UniProt P46013: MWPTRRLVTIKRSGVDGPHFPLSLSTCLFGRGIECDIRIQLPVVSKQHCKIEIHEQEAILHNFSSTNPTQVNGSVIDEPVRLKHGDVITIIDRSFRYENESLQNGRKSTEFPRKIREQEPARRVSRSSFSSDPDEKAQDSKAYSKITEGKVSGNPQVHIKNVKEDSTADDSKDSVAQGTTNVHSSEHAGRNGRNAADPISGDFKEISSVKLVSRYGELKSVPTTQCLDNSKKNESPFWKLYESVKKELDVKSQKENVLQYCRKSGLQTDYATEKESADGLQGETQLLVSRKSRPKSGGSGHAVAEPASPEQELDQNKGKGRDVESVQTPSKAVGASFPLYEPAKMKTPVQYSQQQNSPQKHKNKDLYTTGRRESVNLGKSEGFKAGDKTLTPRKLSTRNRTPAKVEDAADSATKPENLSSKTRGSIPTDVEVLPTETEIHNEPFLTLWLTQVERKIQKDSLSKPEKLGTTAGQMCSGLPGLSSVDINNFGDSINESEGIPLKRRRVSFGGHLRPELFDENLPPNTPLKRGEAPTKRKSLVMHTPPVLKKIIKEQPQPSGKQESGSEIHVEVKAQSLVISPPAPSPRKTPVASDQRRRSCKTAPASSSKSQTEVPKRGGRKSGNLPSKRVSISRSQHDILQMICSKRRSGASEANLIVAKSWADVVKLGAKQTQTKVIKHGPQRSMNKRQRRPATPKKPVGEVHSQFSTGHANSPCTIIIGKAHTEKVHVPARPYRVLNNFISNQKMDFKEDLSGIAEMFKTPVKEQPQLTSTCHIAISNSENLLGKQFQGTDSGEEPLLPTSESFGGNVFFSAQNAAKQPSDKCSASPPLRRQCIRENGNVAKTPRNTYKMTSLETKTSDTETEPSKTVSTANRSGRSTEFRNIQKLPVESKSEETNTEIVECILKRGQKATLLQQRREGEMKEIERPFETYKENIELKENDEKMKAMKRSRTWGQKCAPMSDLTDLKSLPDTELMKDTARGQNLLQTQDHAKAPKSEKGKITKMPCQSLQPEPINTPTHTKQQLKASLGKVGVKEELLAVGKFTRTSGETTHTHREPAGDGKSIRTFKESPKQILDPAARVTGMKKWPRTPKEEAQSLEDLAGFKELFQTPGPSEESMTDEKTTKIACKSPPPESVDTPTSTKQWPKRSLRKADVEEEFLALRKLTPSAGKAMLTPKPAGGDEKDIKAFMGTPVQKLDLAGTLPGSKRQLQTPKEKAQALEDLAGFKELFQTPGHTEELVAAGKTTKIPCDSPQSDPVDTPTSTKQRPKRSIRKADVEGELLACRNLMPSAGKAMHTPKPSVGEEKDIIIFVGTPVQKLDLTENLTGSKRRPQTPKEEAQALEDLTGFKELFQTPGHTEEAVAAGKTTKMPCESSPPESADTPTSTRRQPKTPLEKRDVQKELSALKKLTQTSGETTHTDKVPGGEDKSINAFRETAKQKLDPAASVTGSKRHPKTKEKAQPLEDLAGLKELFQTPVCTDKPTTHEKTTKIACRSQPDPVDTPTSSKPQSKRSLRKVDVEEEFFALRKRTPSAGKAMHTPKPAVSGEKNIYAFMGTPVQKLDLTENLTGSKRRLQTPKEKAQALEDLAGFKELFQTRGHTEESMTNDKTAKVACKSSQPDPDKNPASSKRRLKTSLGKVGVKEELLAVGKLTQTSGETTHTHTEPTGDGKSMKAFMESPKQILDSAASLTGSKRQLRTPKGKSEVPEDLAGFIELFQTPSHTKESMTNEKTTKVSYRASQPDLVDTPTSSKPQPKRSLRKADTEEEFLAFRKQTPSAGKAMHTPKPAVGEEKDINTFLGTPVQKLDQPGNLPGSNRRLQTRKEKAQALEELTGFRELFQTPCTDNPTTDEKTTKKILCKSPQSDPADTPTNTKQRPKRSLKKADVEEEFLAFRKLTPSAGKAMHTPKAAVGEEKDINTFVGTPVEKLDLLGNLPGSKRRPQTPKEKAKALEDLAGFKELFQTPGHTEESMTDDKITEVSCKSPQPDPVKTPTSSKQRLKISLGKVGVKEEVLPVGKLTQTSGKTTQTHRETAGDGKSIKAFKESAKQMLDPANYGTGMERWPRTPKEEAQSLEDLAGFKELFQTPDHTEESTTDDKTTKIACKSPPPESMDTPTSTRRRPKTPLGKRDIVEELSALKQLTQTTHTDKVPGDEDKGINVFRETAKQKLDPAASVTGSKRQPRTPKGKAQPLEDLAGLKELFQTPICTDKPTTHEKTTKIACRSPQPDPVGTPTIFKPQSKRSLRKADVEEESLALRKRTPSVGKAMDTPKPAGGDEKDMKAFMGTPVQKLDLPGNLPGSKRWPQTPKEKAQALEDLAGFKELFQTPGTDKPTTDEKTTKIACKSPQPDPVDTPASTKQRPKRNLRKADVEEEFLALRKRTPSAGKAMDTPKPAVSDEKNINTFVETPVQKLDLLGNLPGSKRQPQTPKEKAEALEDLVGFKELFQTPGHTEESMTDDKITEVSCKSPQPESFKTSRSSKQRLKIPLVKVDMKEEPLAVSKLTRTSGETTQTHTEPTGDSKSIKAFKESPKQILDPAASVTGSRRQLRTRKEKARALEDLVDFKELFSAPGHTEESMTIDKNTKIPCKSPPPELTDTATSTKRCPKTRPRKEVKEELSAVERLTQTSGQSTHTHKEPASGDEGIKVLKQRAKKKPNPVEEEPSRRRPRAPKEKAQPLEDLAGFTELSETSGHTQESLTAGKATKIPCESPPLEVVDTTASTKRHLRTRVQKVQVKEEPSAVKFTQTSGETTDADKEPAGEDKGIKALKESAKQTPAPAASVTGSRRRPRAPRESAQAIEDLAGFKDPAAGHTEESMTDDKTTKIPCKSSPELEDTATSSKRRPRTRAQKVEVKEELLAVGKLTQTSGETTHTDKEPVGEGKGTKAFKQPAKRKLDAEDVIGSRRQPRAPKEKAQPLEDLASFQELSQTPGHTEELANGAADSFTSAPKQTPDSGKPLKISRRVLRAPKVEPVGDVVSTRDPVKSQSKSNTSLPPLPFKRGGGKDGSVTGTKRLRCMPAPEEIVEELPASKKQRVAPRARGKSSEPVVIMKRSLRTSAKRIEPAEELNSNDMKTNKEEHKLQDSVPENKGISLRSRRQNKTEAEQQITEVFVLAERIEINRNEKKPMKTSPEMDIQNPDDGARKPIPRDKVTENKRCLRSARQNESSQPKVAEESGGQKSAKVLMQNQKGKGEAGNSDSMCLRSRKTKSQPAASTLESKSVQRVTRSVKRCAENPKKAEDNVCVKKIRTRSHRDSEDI
UniProt O00443: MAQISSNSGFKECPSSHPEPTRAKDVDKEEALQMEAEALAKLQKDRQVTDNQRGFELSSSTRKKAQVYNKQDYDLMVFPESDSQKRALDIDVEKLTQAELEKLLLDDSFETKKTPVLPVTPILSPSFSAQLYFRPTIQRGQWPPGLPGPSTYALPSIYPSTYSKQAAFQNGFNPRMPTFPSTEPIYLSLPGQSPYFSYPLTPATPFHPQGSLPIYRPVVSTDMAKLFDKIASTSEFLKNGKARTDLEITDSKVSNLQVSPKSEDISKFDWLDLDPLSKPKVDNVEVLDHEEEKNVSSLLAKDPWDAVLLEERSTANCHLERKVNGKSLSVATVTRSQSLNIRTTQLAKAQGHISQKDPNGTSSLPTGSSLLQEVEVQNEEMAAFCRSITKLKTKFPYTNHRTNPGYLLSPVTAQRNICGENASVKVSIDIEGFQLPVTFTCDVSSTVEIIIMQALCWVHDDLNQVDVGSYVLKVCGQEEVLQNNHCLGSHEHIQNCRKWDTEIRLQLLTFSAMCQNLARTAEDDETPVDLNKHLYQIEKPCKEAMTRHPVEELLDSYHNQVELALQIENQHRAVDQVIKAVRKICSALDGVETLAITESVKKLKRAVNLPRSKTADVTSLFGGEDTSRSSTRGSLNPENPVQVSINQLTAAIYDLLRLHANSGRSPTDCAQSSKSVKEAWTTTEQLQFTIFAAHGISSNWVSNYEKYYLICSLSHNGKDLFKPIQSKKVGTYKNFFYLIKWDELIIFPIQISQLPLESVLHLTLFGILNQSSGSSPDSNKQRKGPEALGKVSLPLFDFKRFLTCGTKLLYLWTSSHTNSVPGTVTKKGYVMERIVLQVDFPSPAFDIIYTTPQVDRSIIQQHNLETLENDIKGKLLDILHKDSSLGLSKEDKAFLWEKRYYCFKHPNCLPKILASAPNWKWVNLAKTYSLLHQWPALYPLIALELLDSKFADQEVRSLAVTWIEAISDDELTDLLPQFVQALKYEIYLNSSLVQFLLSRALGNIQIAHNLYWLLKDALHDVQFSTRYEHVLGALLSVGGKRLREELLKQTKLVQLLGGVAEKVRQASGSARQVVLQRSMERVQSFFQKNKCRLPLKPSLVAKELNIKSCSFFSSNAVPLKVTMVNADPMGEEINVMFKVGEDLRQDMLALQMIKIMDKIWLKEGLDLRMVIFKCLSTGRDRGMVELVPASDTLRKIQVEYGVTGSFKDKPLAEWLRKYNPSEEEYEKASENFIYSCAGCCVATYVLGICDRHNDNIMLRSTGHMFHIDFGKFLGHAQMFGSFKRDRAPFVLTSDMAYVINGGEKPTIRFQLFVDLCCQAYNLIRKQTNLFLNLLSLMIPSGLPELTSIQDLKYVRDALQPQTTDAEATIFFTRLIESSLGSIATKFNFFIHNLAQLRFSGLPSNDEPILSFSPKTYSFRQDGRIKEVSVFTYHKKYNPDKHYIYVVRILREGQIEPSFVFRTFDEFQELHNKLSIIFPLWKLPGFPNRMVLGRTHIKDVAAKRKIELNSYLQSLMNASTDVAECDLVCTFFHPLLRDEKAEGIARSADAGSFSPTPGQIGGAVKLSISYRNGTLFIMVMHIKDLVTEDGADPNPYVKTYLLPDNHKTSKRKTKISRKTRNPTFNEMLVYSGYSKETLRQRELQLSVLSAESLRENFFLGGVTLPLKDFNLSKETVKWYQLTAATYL
UniProt P62491: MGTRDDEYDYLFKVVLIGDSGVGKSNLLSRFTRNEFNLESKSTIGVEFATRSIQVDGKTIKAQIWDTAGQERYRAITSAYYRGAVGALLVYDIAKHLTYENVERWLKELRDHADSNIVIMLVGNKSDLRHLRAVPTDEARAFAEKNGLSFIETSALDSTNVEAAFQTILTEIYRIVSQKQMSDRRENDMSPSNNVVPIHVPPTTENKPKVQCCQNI
UniProt Q9ULW0: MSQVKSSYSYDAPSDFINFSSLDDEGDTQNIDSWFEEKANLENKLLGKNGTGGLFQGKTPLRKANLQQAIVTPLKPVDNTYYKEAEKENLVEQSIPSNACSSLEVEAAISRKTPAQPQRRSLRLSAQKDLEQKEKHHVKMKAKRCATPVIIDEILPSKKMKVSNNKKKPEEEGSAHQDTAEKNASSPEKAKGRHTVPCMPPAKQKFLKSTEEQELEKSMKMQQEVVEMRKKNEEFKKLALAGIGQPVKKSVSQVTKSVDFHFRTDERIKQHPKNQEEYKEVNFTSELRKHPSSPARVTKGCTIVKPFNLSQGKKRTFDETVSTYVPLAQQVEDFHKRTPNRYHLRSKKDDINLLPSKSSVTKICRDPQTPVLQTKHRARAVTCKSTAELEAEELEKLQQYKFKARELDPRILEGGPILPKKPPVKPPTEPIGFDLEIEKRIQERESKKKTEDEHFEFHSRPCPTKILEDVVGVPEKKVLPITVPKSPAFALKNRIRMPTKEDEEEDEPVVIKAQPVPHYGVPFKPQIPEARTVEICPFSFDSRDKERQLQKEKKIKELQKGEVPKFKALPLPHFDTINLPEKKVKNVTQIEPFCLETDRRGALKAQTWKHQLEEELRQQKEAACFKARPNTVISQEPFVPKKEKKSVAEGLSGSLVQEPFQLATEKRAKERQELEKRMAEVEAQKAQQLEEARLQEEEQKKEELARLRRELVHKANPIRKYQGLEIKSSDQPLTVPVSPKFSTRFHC

In this assay the target is T1, kinesin family 15 (KIF15) (human (endogenous in PANC-1 / MIA PaCa-2)) (UniProt Q9NS87).
T1 sequence: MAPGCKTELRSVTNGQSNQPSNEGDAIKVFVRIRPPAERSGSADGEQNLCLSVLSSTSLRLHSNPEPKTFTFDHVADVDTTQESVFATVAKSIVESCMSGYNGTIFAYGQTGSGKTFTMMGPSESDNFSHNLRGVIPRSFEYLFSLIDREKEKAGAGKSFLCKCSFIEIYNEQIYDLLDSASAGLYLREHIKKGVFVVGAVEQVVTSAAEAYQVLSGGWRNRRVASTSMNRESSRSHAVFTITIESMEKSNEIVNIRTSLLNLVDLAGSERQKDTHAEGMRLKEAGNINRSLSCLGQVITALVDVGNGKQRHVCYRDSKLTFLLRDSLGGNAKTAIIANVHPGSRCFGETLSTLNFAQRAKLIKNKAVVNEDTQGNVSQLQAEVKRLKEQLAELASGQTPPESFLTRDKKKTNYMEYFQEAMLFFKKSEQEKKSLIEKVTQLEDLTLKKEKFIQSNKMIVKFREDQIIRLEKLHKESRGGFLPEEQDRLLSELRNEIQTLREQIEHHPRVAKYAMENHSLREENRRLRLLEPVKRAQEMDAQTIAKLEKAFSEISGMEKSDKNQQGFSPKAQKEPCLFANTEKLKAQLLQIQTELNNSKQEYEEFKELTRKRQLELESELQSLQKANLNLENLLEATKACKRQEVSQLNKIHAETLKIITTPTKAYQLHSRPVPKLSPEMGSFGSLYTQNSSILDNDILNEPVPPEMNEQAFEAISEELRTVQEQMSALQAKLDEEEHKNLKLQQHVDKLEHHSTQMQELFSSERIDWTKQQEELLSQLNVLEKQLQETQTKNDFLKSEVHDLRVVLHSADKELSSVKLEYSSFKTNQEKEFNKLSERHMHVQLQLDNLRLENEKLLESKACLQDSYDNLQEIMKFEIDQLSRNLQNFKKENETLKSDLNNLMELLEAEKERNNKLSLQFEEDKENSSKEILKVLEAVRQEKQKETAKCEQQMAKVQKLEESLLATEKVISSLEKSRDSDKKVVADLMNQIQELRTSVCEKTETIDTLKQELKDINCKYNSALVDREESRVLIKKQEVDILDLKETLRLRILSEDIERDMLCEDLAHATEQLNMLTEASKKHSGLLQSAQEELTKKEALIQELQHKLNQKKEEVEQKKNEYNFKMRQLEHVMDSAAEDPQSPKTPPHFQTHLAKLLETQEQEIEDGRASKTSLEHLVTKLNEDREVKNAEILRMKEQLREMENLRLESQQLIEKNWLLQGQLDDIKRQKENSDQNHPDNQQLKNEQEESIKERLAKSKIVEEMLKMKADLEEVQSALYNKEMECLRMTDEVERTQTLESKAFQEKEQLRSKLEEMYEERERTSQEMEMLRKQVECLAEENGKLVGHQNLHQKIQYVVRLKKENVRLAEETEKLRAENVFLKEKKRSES
The assay is described as follows: affinity purification with mass spectrometry; KIF15 immunoprecipitated from PC cell lysates (primary antibody or IgG overnight at 4 °C, agarose beads 4 h, five washes); gel stained, band of interest analysed by mass spectrometry.

Results are given in words; binding and its absence hold for the method and conditions named. Binding seen in cells or lysates may run through a third protein. A yes stands for co-enrichment or nearness to the bait. Other partners may have been found.

Turning to KI-67 (from UniProt P46013 1-3256), the binding result was “binds”. For the substance PI3K-C2α (from UniProt O00443 1-1686), the binding result is listed as “binds”.

As for RAB11A (from UniProt P62491 1-216), the binding entry is on record as “binds”. As to TPX2 (from UniProt Q9ULW0 1-747), the binding entry was “binds”.
